Test results: the supplement of paper PMC7889204
Structures can show the parent of a compound that is named as a salt. This is one part of the list. Many values rest on one well or one pass, so single values are uncertain.

Tested on: C6
Assay: cell mass (Coomassie absorbance) after combination of library compound with HMBA, relative to vehicle control (fraction); higher = more remaining cells (less growth inhibition)

CN(C)C(=N)NC(=N)N [Metformin hydrochloride] + CC(=O)NCCCCCCNC(C)=O [hexamethylene bisacetamide]
cell mass: 0.866

O=C(Nc1cccc(Cl)c1)Nc1ncc(CCNc2ncnc3ccsc23)s1 [SNS-314 Mesylate] + CC(=O)NCCCCCCNC(C)=O [hexamethylene bisacetamide]
cell mass: 0.308

COc1ccc2[nH]c([S@@+]([O-])Cc3ncc(C)c(OC)c3C)nc2c1 [Esomeprazole sodium] + CC(=O)NCCCCCCNC(C)=O [hexamethylene bisacetamide]
cell mass: 0.776

CC(C)[C@H](O)C(=O)N[C@@H](C)C(=O)N[C@@H]1C(=O)N(C)CCc2ccccc21 [Semagacestat] + CC(=O)NCCCCCCNC(C)=O [hexamethylene bisacetamide]
cell mass: 0.609

O=C(O)CC[C@H]1CC[C@@](c2cc(F)ccc2F)(S(=O)(=O)c2ccc(Cl)cc2)CC1 + CC(=O)NCCCCCCNC(C)=O [hexamethylene bisacetamide]
cell mass: 0.592

CC(C)(C)c1cnc(CSc2cnc(NC(=O)C3CCNCC3)s2)o1 + CC(=O)NCCCCCCNC(C)=O [hexamethylene bisacetamide]
cell mass: 0.45

O=C1NC(=O)/C(=C/c2ccc(-c3ccc(F)cc3O)o2)S1 + CC(=O)NCCCCCCNC(C)=O [hexamethylene bisacetamide]
cell mass: 0.456

O=C(O)c1ccc2c(c1)nc(Nc1cccc(Cl)c1)c1ccncc12 + CC(=O)NCCCCCCNC(C)=O [hexamethylene bisacetamide]
cell mass: 0.476

O=C(NC[C@H](O)CO)c1ccncc1Nc1ccc(I)cc1F + CC(=O)NCCCCCCNC(C)=O [hexamethylene bisacetamide]
cell mass: 0.276

O=C1NC(=O)/C(=C\c2ccc3nccnc3c2)S1 + CC(=O)NCCCCCCNC(C)=O [hexamethylene bisacetamide]
cell mass: 0.489

CC(C)(C)c1[nH]cnc1/C=c1\[nH]c(=O)/c(=C/c2ccccc2)[nH]c1=O + CC(=O)NCCCCCCNC(C)=O [hexamethylene bisacetamide]
cell mass: 0.272

NC(=O)c1cccc(-c2cccc(OC(=O)NC3CCCCC3)c2)c1 + CC(=O)NCCCCCCNC(C)=O [hexamethylene bisacetamide]
cell mass: 0.477

Cc1ccc(C(=O)N(CCCN)[C@@H](c2oc3cc(Cl)ccc3c(=O)c2Cc2ccccc2)C(C)C)cc1 + CC(=O)NCCCCCCNC(C)=O [hexamethylene bisacetamide]
cell mass: 0.59

Oc1c2ccccc2c2c3c(cccc13)N=N2 + CC(=O)NCCCCCCNC(C)=O [hexamethylene bisacetamide]
cell mass: 0.398

CCc1c2c(nc3ccc(OC(=O)N4CCC(N5CCCCC5)CC4)cc13)-c1cc3c(c(=O)n1C2)COC(=O)[C@]3(O)CC [Irinotecan] + CC(=O)NCCCCCCNC(C)=O [hexamethylene bisacetamide]
cell mass: 0.197

CN(CCOc1ccc(CC2SC(=O)NC2=O)cc1)c1ccccn1 (configuration not stated) [Rosiglitazone] + CC(=O)NCCCCCCNC(C)=O [hexamethylene bisacetamide]
cell mass: 0.474

CCN(CCO)CCCOc1ccc2c(Nc3cc(CC(=O)Nc4cccc(F)c4)[nH]n3)ncnc2c1 [AZD1152-HQPA(Barasertib)] + CC(=O)NCCCCCCNC(C)=O [hexamethylene bisacetamide]
cell mass: 0.619

CC(C)[C@H](C(=O)Nc1ccc(C(=O)NO)cc1)c1ccccc1 + CC(=O)NCCCCCCNC(C)=O [hexamethylene bisacetamide]
cell mass: 0.296

COc1cc(OC)c(/C=C/S(=O)(=O)Cc2ccc(OC)c(NCC(=O)O)c2)c(OC)c1 + CC(=O)NCCCCCCNC(C)=O [hexamethylene bisacetamide]
cell mass: 0.202

CN(C)Cc1ccc(-c2nc3cccc4c3n2CCNC4=O)cc1 + CC(=O)NCCCCCCNC(C)=O [hexamethylene bisacetamide]
cell mass: 0.489

COc1ccc(S(=O)(=O)N(C(C)=O)c2ccccc2/C=C/c2cc[n+]([O-])cc2)cc1 + CC(=O)NCCCCCCNC(C)=O [hexamethylene bisacetamide]
cell mass: 0.382

Nc1cc(C(F)(F)F)c(-c2cc(N3CCOCC3)nc(N3CCOCC3)n2)cn1 + CC(=O)NCCCCCCNC(C)=O [hexamethylene bisacetamide]
cell mass: 0.504

Cc1ccc(-c2cc(C(F)(F)F)nn2-c2ccc(S(N)(=O)=O)cc2)cc1 [Celecoxib] + CC(=O)NCCCCCCNC(C)=O [hexamethylene bisacetamide]
cell mass: 0.351

CCCCCOC(=O)Nc1nc(=O)n([C@@H]2O[C@H](C)[C@@H](O)[C@@H]2O)cc1F [Capecitabine(Xeloda)] + CC(=O)NCCCCCCNC(C)=O [hexamethylene bisacetamide]
cell mass: 0.436

CCOc1ccn(-c2ccc(F)cc2)c(=O)c1C(=O)Nc1ccc(Oc2ccnc(N)c2Cl)c(F)c1 + CC(=O)NCCCCCCNC(C)=O [hexamethylene bisacetamide]
cell mass: 0.403

c1cncc(CN2CCC(n3ncc4c(N5CCOCC5)nc(-c5ccc6[nH]ccc6c5)nc43)CC2)c1 + CC(=O)NCCCCCCNC(C)=O [hexamethylene bisacetamide]
cell mass: 0.5

Cc1ccc(S(=O)(=O)OCC(=O)Nc2ccc(C(=O)O)c(O)c2)cc1 + CC(=O)NCCCCCCNC(C)=O [hexamethylene bisacetamide]
cell mass: 0.448

COc1cccc(Nc2c(C(N)=O)cnc3c(C)cc(S(=O)(=O)c4cccc(C(=O)N(C)C)c4)cc23)c1 + CC(=O)NCCCCCCNC(C)=O [hexamethylene bisacetamide]
cell mass: 0.403

Nc1nccc(Oc2ccc(NC(=O)c3c[nH]cc(-c4ccc(F)cc4)c3=O)cc2F)c1Cl + CC(=O)NCCCCCCNC(C)=O [hexamethylene bisacetamide]
cell mass: 0.844

Cc1[nH]c(/C=C2\C(=O)Nc3ccccc32)c(C)c1CCC(=O)O + CC(=O)NCCCCCCNC(C)=O [hexamethylene bisacetamide]
cell mass: 0.657

CC(C)Cc1ccc(C(C)C(=O)O)cc1 (configuration not stated) [Ibuprofen] + CC(=O)NCCCCCCNC(C)=O [hexamethylene bisacetamide]
cell mass: 0.647

CC(C)C[C@H](NC(=O)[C@@H](O)[C@H](N)Cc1ccccc1)C(=O)O [Ubenimex] + CC(=O)NCCCCCCNC(C)=O [hexamethylene bisacetamide]
cell mass: 0.578
